PubChem BioAssay AID743121 | NCATS, 2013
In all, the deposit lists about 26,000 reagents; below is a part drawn at random. In the full data, 167 (0.63%) are marked active. 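Calls are per gene from RSA p-values that are not deposited; an individual active-marked siRNA can sensitise only weakly.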 Reagents against one gene are numbered here. Not all columns of the deposit are shown.

- Test: 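Knock-downs that sensitise breast cancer cells to camptothecin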 (primary screen)
- Cells: MDA-MB-231 cells, a human breast cancer line
- Reagent: single siRNA against human genes, 20 nM siRNA (0.8 pmol per well)
- Time to read-out: 120 h (drug added 48 h after transfection, read 72 h later)
- Conditions: camptothecin 20 nM (about EC30) for 72 h; vehicle 0.1% DMSO in parallel plates
- Measurement: 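CellTiter-Glo ATP signal, scaled to control siRNA as percent viability; sensitisation given as log2 of untreated divided by camptothecin-treated viability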
- Scale: log2 vehicle/camptothecin viability: higher = stronger sensitisation to camptothecin
- Active means: 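Active genes have an RSA gene-level p-value below 0.001, computed from the ratios of their separate siRNAs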

{"gene symbol":"HTRA3 (HtrA serine peptidase 3)","siRNA no.":1,"log2 vehicle/camptothecin viability":-0.568,"activity call":"inactive"}
{"gene symbol":"HTRA3 (HtrA serine peptidase 3)","siRNA no.":2,"log2 vehicle/camptothecin viability":-0.288,"activity call":"inactive"}
{"gene symbol":"HTRA3 (HtrA serine peptidase 3)","siRNA no.":3,"log2 vehicle/camptothecin viability":-0.161,"activity call":"inactive"}
{"gene symbol":"HTRA3 (HtrA serine peptidase 3)","siRNA no.":4,"log2 vehicle/camptothecin viability":-0.455,"activity call":"inactive"}
{"gene symbol":"PDZD8 (PDZ domain containing 8)","siRNA no.":1,"log2 vehicle/camptothecin viability":-0.524,"activity call":"inactive"}
{"gene symbol":"PDZD8 (PDZ domain containing 8)","siRNA no.":2,"log2 vehicle/camptothecin viability":-0.0678,"activity call":"inactive"}
{"gene symbol":"PDZD8 (PDZ domain containing 8)","siRNA no.":3,"log2 vehicle/camptothecin viability":0.00943,"activity call":"inactive"}
{"gene symbol":"PDZD8 (PDZ domain containing 8)","siRNA no.":4,"log2 vehicle/camptothecin viability":-0.163,"activity call":"inactive"}
{"gene symbol":"MX2 (MX dynamin like GTPase 2)","siRNA no.":1,"log2 vehicle/camptothecin viability":-0.359,"activity call":"inactive"}
{"gene symbol":"MX2 (MX dynamin like GTPase 2)","siRNA no.":2,"log2 vehicle/camptothecin viability":-0.104,"activity call":"inactive"}
{"gene symbol":"MX2 (MX dynamin like GTPase 2)","siRNA no.":3,"log2 vehicle/camptothecin viability":-0.246,"activity call":"inactive"}
{"gene symbol":"MX2 (MX dynamin like GTPase 2)","siRNA no.":4,"log2 vehicle/camptothecin viability":-0.27,"activity call":"inactive"}
{"gene symbol":"LBP (lipopolysaccharide binding protein)","siRNA no.":1,"log2 vehicle/camptothecin viability":0.35,"activity call":"inactive"}
{"gene symbol":"LBP (lipopolysaccharide binding protein)","siRNA no.":2,"log2 vehicle/camptothecin viability":0.975,"activity call":"inactive"}
{"gene symbol":"LBP (lipopolysaccharide binding protein)","siRNA no.":3,"log2 vehicle/camptothecin viability":-0.06,"activity call":"inactive"}
{"gene symbol":"LBP (lipopolysaccharide binding protein)","siRNA no.":4,"log2 vehicle/camptothecin viability":-0.278,"activity call":"inactive"}
{"gene symbol":"INSR (insulin receptor)","siRNA no.":1,"log2 vehicle/camptothecin viability":-0.11,"activity call":"inactive"}
{"gene symbol":"INSR (insulin receptor)","siRNA no.":2,"log2 vehicle/camptothecin viability":0.185,"activity call":"inactive"}
{"gene symbol":"INSR (insulin receptor)","siRNA no.":3,"log2 vehicle/camptothecin viability":-0.251,"activity call":"inactive"}
{"gene symbol":"INSR (insulin receptor)","siRNA no.":4,"log2 vehicle/camptothecin viability":-0.293,"activity call":"inactive"}
{"gene symbol":"MELK (maternal embryonic leucine zipper kinase)","siRNA no.":1,"log2 vehicle/camptothecin viability":-0.474,"activity call":"inactive"}
{"gene symbol":"MELK (maternal embryonic leucine zipper kinase)","siRNA no.":2,"log2 vehicle/camptothecin viability":-0.0861,"activity call":"inactive"}
{"gene symbol":"MELK (maternal embryonic leucine zipper kinase)","siRNA no.":3,"log2 vehicle/camptothecin viability":-0.314,"activity call":"inactive"}
{"gene symbol":"MELK (maternal embryonic leucine zipper kinase)","siRNA no.":4,"log2 vehicle/camptothecin viability":-0.52,"activity call":"inactive"}
{"gene symbol":"SUMO3 (small ubiquitin like modifier 3)","siRNA no.":1,"log2 vehicle/camptothecin viability":-0.329,"activity call":"inactive"}
{"gene symbol":"SUMO3 (small ubiquitin like modifier 3)","siRNA no.":2,"log2 vehicle/camptothecin viability":-0.491,"activity call":"inactive"}
{"gene symbol":"SUMO3 (small ubiquitin like modifier 3)","siRNA no.":3,"log2 vehicle/camptothecin viability":0.0921,"activity call":"inactive"}
{"gene symbol":"SUMO3 (small ubiquitin like modifier 3)","siRNA no.":4,"log2 vehicle/camptothecin viability":0.0596,"activity call":"inactive"}
{"gene symbol":"HSPE1 (heat shock protein family E (Hsp10) member 1)","siRNA no.":1,"log2 vehicle/camptothecin viability":0.098,"activity call":"inactive"}
{"gene symbol":"HSPE1 (heat shock protein family E (Hsp10) member 1)","siRNA no.":2,"log2 vehicle/camptothecin viability":-0.667,"activity call":"inactive"}
{"gene symbol":"HSPE1 (heat shock protein family E (Hsp10) member 1)","siRNA no.":3,"log2 vehicle/camptothecin viability":-0.156,"activity call":"inactive"}
{"gene symbol":"HSPE1 (heat shock protein family E (Hsp10) member 1)","siRNA no.":4,"log2 vehicle/camptothecin viability":-0.665,"activity call":"inactive"}
{"gene symbol":"IFNG (interferon gamma)","siRNA no.":1,"log2 vehicle/camptothecin viability":-0.133,"activity call":"inactive"}
{"gene symbol":"IFNG (interferon gamma)","siRNA no.":2,"log2 vehicle/camptothecin viability":-0.145,"activity call":"inactive"}
{"gene symbol":"IFNG (interferon gamma)","siRNA no.":3,"log2 vehicle/camptothecin viability":-0.0654,"activity call":"inactive"}
{"gene symbol":"IFNG (interferon gamma)","siRNA no.":4,"log2 vehicle/camptothecin viability":-0.206,"activity call":"inactive"}

In a second layout: 5 of the entries above
{"gene symbol": "LBP (lipopolysaccharide binding protein)", "siRNA no.": 1, "log2 vehicle/camptothecin viability": 0.35, "activity call": "inactive"}
{"gene symbol": "LBP (lipopolysaccharide binding protein)", "siRNA no.": 2, "log2 vehicle/camptothecin viability": 0.975, "activity call": "inactive"}
{"gene symbol": "LBP (lipopolysaccharide binding protein)", "siRNA no.": 3, "log2 vehicle/camptothecin viability": -0.06, "activity call": "inactive"}
{"gene symbol": "LBP (lipopolysaccharide binding protein)", "siRNA no.": 4, "log2 vehicle/camptothecin viability": -0.278, "activity call": "inactive"}
{"gene symbol": "INSR (insulin receptor)", "siRNA no.": 1, "log2 vehicle/camptothecin viability": -0.11, "activity call": "inactive"}
